Results deposited as PubChem BioAssay AID652243 (Drosophila RNAi Screening Center, 2013).

- Aim: 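Knock-downs that decrease or increase androgen receptor reporter signal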 (primary screen)
- Cells: Drosophila S2R+ cells
- Knock-down reagent: long dsRNA against Drosophila genes
- Time to read-out: 72 h (48 h, then 24 h hormone)
- Challenge: synthetic androgen R1881 at 10 nM for 24 h
- Detection: 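Firefly light from an androgen-responsive reporter and Renilla control light per well, raw and unnormalised, for each of two replicates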
- Scale: firefly reporter light: higher = more light from androgen-responsive reporter; Renilla control light: higher = more constitutive control signal (cell number, transfection)
- Hit rule: 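Hit when the log firefly-to-Renilla ratio dropped or increased by a fixed fold versus the mean of GFP or LacZ controls across duplicate plates; lowering cut given as 1.5 and as 3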
- Meaning of the calls: active = hit: reporter lowered or raised; inactive = no hit
The screen tested about 24,000 reagents; below is a random part of those with a known target gene and a result. Over the whole deposit, 246 (1%) were called active. 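Plates not normalised; calls are printed but the firefly/Renilla ratio behind them is not deposited; fold cut for lowering reported inconsistently.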 Raw values are not corrected between plates. The record does not give: the amount of reagent.

The opening 2 records as a preview:
| Target gene | amplicon | firefly reporter light, replicate 1 | firefly reporter light, replicate 2 | Renilla control light, replicate 1 | Renilla control light, replicate 2 | Outcome |
| --- | --- | --- | --- | --- | --- | --- |
| natalisin | DRSC14967 | 1.23e5 | 1.44e5 | 1.80e6 | 2.15e6 | inactive |
| natalisin | DRSC23390 | 1.10e6 | 1.31e6 | 1.03e6 | 1.20e6 | inactive |

The list itself, repeating the preview:
| Target gene | amplicon | firefly reporter light, replicate 1 | firefly reporter light, replicate 2 | Renilla control light, replicate 1 | Renilla control light, replicate 2 | Outcome |
| --- | --- | --- | --- | --- | --- | --- |
| natalisin | DRSC14967 | 1.23e5 | 1.44e5 | 1.80e6 | 2.15e6 | inactive |
| natalisin | DRSC23390 | 1.10e6 | 1.31e6 | 1.03e6 | 1.20e6 | inactive |
| natalisin | DRSC26336 | 3.36e5 | 2.82e5 | 8.14e5 | 7.23e5 | inactive |
| CG7900 | DRSC16336 | 3.47e5 | 3.51e5 | 2.20e6 | 1.97e6 | active |
| CG7900 | DRSC21343 | 4.49e5 | 5.40e5 | 1.59e6 | 1.42e6 | inactive |
| bcd | DRSC12624 | 71320 | 26500 | 3.35e5 | 4.00e5 | inactive |
| bcd | DRSC25303 | 6.77e5 | 8.86e5 | 9.60e5 | 9.04e5 | inactive |
| Moe | DRSC18684 | 84877 | 1.20e5 | 6.03e5 | 6.36e5 | inactive |
| Moe | DRSC39153 | 1.01e6 | 1.13e6 | 2.07e6 | 1.91e6 | inactive |
| ND-B17 | DRSC01981 | 1.44e5 | 1.58e5 | 1.94e6 | 1.96e6 | inactive |
| sob | DRSC00838 | 33356 | 34849 | 3.96e5 | 3.99e5 | inactive |
| sob | DRSC25075 | 5.10e5 | 4.23e5 | 9.24e5 | 6.90e5 | inactive |
| Pp4-19C | DRSC20559 | 2.45e5 | 1.26e5 | 1.16e6 | 5.69e5 | inactive |
| Pp4-19C | DRSC21251 | 79126 | 80362 | 4.51e5 | 4.32e5 | active |
| Pp4-19C | DRSC23319 | 5.30e5 | 5.43e5 | 2.72e5 | 2.72e5 | inactive |
| Pp4-19C | DRSC26053 | 2.22e5 | 2.15e5 | 8.53e5 | 7.73e5 | inactive |
| Prosalpha6T | DRSC02873 | 2.07e5 | 1.66e5 | 1.20e6 | 1.72e6 | inactive |
| CG15601 | DRSC19670 | 8.20e5 | 7.48e5 | 3.51e6 | 1.82e6 | inactive |
| Pex11c | DRSC14677 | 2.42e5 | 2.64e5 | 2.80e6 | 3.28e6 | inactive |
| mRpL1 | DRSC16251 | 733 | 621 | – | – | inactive |
| CG9743 | DRSC16552 | 1.52e5 | 93053 | 1.97e6 | 2.51e6 | inactive |
| CG9743 | DRSC28943 | 7.10e5 | 7.77e5 | 1.40e6 | 1.51e6 | inactive |
| RpS8 | DRSC16318 | 1.01e5 | 97183 | 9.41e5 | 1.26e6 | inactive |
| CRIF | DRSC11811 | 2.73e5 | 2.23e5 | 1.87e6 | 1.51e6 | inactive |
| CRIF | DRSC26514 | 1.73e5 | 2.69e5 | 5.04e5 | 6.35e5 | inactive |
